{"source": "patent US12110283B2", "about": "“Carbonic anhydrase targeting agents and methods of using same” (VisEn Medical, Inc., priority 2011, dated 2024)", "system": "HeLa tumor tissue sections", "experiment": "Distribution in tumor tissue by fluorescence microscopy", "assay_type": "in vivo, mice", "conditions": "sections co-stained with anti CA IX antibody or pimonidazole; Hoechst 33342 for perfused tissue", "description": "Tumor bearing mice injected with C5 were then injected intravenously with pimonidazole (80 mg/kg), a marker of hypoxic tissue, and Hoechst 33342 (25 mg/kg), which stains highly perfused tissue, one hour and five minutes before sacrifice, respectively (38). Tumors, kidneys and muscle tissues were collected and imaged by FRI. The tissues were then embedded, frozen in OCT (Optimal Cutting Temperature compound), and stored at −80° C. until they were sectioned for fluorescence microscopy and immunostaining. Sections of 8 μm thickness were prepared and air dried for 10 min. Sections were imaged for Hoechst (blue) in combination with C5 (red). After acquiring images, the sections were fixed in ice-cold acetone for 20 min and incubated in SuperBlock (37515, Thermo Scientific) for 30 min. The tissue sections were then stained with detection antibodies diluted with blocking solution for 1 hour; CA IX expression was detected with fluorescein-conjugated Anti-Human CA IX monoclonal antibody (FAB2188F, R&D System) diluted 1:10 and pimonidazole binding was detected by FITC-conjugated murine anti-pimonidazole monoclonal antibody (provided in the Hypoxyprobe plus kit) diluted 1:25 to a adjacent section. The sections were imaged again in blue (Hoechst) and green (pimonidazole and CA IX) fluorescence. […] Images were taken by Carl Zeiss Axiovert fluorescence microscope. […]", "data": [{"smiles": "CC1(C)C(/C=C/C(=C/C=C2/N(CCCS(=O)(=O)O)c3ccc4c(S(=O)(=O)O)cc(S(=O)(=O)O)cc4c3C2(C)C)c2ccc(C(=O)NCCC(=O)Nc3nnc(S(N)(=O)=O)s3)cn2)=[N+](CCCS(=O)(=O)[O-])c2ccc3c(S(=O)(=O)O)cc(S(=O)(=O)O)cc3c21", "note": "[Compound C5, 3-(2-((1E,3Z,5E)-5-(1,1-dimethyl-6,8-disulfo-3-(3-sulfopropyl)-1H-benzo[e]indol-2(3H)-ylidene)-3-(5-((3-oxo-3-((5-sulfamoyl-1,3,4-thiadiazol-2-yl)amino)propyl)carbamoyl)pyridin-2-yl)penta-1,3-dien-1-yl)-1,1-dimethyl-6,8-disulfo-1H-benzo[e]indol-3-ium-3-yl)propane-1-sulfonate]", "values": [{"measurement": "tumor tissue distribution of fluorescence signal (FIG. 7)", "result": "co-localizes with both CA IX antibody and the hypoxia marker pimonidazole and is located away from well perfused areas indicated by the Hoechst stain"}]}]}
